Measured values published in PubChem BioAssay AID540275 (National Center for Advancing Translational Sciences (NCATS), 2011).
The campaign covered roughly 320,000 compounds. About 620 (0.19%) were called active. Inconclusive means that the source gave no clear call. Such entries were picked first, then a sample of the others. No stated cut-off is given here; in the data, active means activation above about 80%; inconclusive means between about 30% and that limit; inactive means weaker than that.

By UniProt entry, the sequences of proteins in these tests, tags left out.
UniProt Q8NER1, whole entry, looked up: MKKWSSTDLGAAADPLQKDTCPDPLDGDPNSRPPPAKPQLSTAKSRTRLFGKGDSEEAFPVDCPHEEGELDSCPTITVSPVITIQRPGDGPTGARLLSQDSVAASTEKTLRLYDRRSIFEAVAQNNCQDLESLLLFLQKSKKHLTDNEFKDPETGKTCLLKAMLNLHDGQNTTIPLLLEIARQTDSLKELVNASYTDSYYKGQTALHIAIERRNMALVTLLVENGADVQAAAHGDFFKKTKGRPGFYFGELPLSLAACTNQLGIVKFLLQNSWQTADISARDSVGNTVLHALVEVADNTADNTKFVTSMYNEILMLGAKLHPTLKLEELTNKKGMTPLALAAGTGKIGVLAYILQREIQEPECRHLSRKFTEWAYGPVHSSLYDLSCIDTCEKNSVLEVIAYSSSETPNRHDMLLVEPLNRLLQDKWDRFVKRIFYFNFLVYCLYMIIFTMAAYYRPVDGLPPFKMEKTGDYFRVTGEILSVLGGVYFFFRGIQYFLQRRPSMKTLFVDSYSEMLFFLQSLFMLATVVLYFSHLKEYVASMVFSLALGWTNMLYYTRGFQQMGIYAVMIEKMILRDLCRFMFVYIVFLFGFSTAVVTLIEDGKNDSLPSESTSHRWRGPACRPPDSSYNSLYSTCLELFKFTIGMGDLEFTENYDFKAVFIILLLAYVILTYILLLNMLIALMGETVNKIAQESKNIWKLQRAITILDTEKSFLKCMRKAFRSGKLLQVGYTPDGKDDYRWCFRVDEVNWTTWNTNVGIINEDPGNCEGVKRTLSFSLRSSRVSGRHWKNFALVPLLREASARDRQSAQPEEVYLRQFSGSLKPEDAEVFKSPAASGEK

Biological target: Transient receptor potential cation channel subfamily V member 1 (Homo sapiens) (UniProt Q8NER1)
Assay: HTS Assay for Compounds that Act as Agonists of the Vanilloid Receptor 1; further: 0% is about no effect
Conditions: TRPV1-expressing cells, Fluo-8 calcium influx, agonist mode; at 8.33 µM, hits give high values
Procedure, shortened: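 TRPV1-expressing cells were cultured overnight at 35.5C and loaded with Fluo-8 calcium dye for 40 to 90 min at room temperature. After a 10 s baseline, compound was added and calcium influx was read kinetically for 3 min (ex 480/em 520 nm).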

Structure (SMILES)	activation
Cc1ccccc1-n1nc(C)c2cc(C(=O)NCc3cccnc3)sc21	inconclusive: 51.5%
COc1ccc(CCC(=O)OCC(=O)c2cccc(OC)c2)cc1	inconclusive: 34.1%
CC(C)(C)c1ccc(C2C3=C(CCCC3=O)NC3=C2C(=O)c2ccccc23)cc1 (centres undefined)	inconclusive: 42.3%
Cc1oc(-c2nc3ccccc3n2C)cc1C(=O)c1ccccc1	inconclusive: 32.7%
CC(C)Oc1ccc(C(=O)Nc2ccccc2N2CCOCC2)cc1	inactive: 19.9%
C(=N/Nc1nc(-c2ccccc2)cc(-c2ccccc2)n1)/c1cccnc1	inconclusive: 70.8%
Cc1cccnc1NC(=O)Cn1c(=O)oc2ccccc21	inconclusive: 38.6%
COc1ccc(Cl)cc1-c1nc(SCC(=O)N(C)CCC#N)n[nH]1	inactive: 1.06%
O=C(NCc1ccc(Cl)cc1)C1CCCN(c2ncnc3c2nc2n3CCCCC2)C1 (centres undefined)	inconclusive: 44.9%
Cc1ccc(S(=O)(=O)N(CC(=O)NCC2CCCO2)Cc2cccc(C)c2)cc1 (centres undefined)	inconclusive: 37.2%
COc1ccc(CN(CC(=O)NC2CCCC2)C(=O)c2ccc(-c3ccccc3)[nH]2)cc1	inconclusive: 44.6%
O=[N+]([O-])c1ccccc1/C=C/CN1CCCCC1	inactive: -2.49%
Cc1ccc(C(=O)N2CC(=O)Nc3ccc(F)cc3C2c2ccccc2)cc1 (centres undefined)	inconclusive: 31.3%
O=C(CSc1nnc(-c2ccccc2F)n1C1CCCCC1)N1CCCC1	inconclusive: 35.4%
C/C(=N\NC(=O)c1ccc([N+](=O)[O-])cc1)c1c(O)cc(C)oc1=O	inconclusive: 44.5%
COCCCNC(=O)CCc1c(C)nc2c(-c3ccc(F)cc3)c(C)nn2c1C	inconclusive: 67.7%
COc1ccc(C(=O)Nc2ccc3ccccc3c2)cc1	active: 96%
CCOC(=O)C1(Cc2cccc(OC)c2)CCCN(Cc2cc(OC)c(O)c(OC)c2)C1 (centres undefined)	inactive: -3.47%
CC(OC(=O)CCc1ccccc1)C(=O)Nc1ccc(Cl)cn1 (centres undefined)	inconclusive: 31.5%
O=C(NC1CC1)c1ccc2c(c1)N(Cc1ccc(Cl)cc1)CCS2	inconclusive: 45.2%
Cc1ccccc1-n1c(SCC(=O)c2c(N)n(C)c(=O)n(C)c2=O)nc2sc3c(c2c1=O)CCCC3	inconclusive: 52.3%
O=c1cc(-c2ccccc2)nc2nc(SCc3ccccc3)[nH]n12	inactive: 0.134%
COc1ccc(OC)c(NS(=O)(=O)c2ccc(N3CCCC3=O)cc2)c1	inactive: -1.49%

Structure (SMILES)	activation
CC(C(=O)N1CCc2ccccc21)N(C)CC(=O)Nc1ccc(F)cc1 (centres undefined)	inconclusive: 40.7%
S=C(NCCC1=CCCCC1)NCc1ccco1	inconclusive: 55.2%
CCCNC(=O)c1onc(CSc2ccccn2)c1C(=O)NCCC	inactive: 24.8%
CC(=O)COC(=O)c1cc(-c2ccc(C)cc2)nc2ccccc12	inconclusive: 42.1%
CCOC(=O)C1(Cc2ccc(Cl)cc2)CCN(C(=O)c2sc(C)nc2C)CC1	inconclusive: 37.6%
S=C(NCc1ccncc1)Nc1ccc(Br)cc1Cl	inconclusive: 53.2%
CCN(CCCNC(=O)Cn1cc2c(n1)CCCC2)c1cccc(C)c1	inconclusive: 39.3%
COc1cccc(-c2cc(C(=O)NCC3CCCO3)c3cc(C)cc(C)c3n2)c1 (centres undefined)	inconclusive: 53%
CCc1ccc(C(=O)N2CCN(c3ccc(F)cc3)CC2)s1	inconclusive: 38.7%
CCCn1cc(S(=O)(=O)c2ccccc2)c(=O)c2cc(CC)ccc21	inconclusive: 40.9%
CCOC(=O)[C@H]1[C@H]2COc3ccc(Br)cc3[C@@H]2N2C(=O)c3ccc(F)cc3NC(=O)[C@@]12C	inconclusive: 76.1%
Cc1ccc(-c2nc(CN3CCCC(C(=O)N4CCOCC4)C3)c(C)o2)cc1 (centres undefined)	inconclusive: 47.1%
Cc1nn(C)c(C(=O)NNC(=S)NC2CCCCC2)c1Br	inactive: 6.64%
O=C(Nc1nc(-c2ccc(F)c(F)c2)cs1)c1ccc(OCC2CCCO2)cc1 (centres undefined)	inactive: -5.9%
O=C1/C(=C/c2ccccc2)Oc2cc(OC(=O)N3CCOCC3)ccc21	inconclusive: 39.6%
COc1ccccc1Oc1ccc(NC(=O)c2ccccc2C)cc1	inconclusive: 30.1%
Cn1ncc(Cl)c1C(=O)N/N=C/c1cccc(OC2CSC2)c1	inconclusive: 49.9%
CCCCC1CCC(C(=O)N(C)CC(=O)Nc2cccc(OC)c2)CC1 (centres undefined)	inconclusive: 36.3%
CC(=O)n1cc([C@H]2C=C(C(=O)NCc3ccccc3)O[C@@H](OCc3ccc(CO)cc3)C2)c2ccccc21	inactive: 8.96%
COc1ccccc1-c1cc(C(=O)NCc2ccccc2)no1	inconclusive: 39.5%
O=C(c1ccccc1F)N1CCN(Cc2nc3sc4c(c3c(=O)[nH]2)CCCC4)CC1	inactive: 1.84%
COC(=O)N1CCN(c2ccc(Cl)c(Cl)c2)CC1	inconclusive: 63.1%
CCOC(=O)c1[nH]cnc1C(=O)Nc1ccc(F)cc1	inactive: 3.2%

Structure (SMILES)	activation
CC1CCN(Cc2c(C#N)c3ccccc3n2C)CC1	inconclusive: 30.1%
S=C(NCc1cccs1)Nc1cc(Cl)cc(Cl)c1	inconclusive: 44.3%
Cc1sc2ncnc(N3CCC(C(=O)N(C)CC(=O)Nc4ccc(Cl)c(C(F)(F)F)c4)CC3)c2c1C	inconclusive: 40.5%
COc1ccc(COn2nnc3ccc(S(=O)(=O)N4CCOCC4)cc32)cc1F	inconclusive: 61.9%
O=C(CCCn1c(=S)[nH]c2ccsc2c1=O)NC1CCCCC1	inactive: -2.08%
COc1ccc(NC(=O)c2ccc(COCC(F)(F)F)cc2)cc1OC	inconclusive: 35.2%
Cc1cc(C)c(C)c(S(=O)(=O)N2CCC(C(=O)Nc3ccc(S(=O)(=O)N4CCOCC4)cc3)CC2)c1C	inactive: 0.645%
CCc1ccc(C(C(=O)NC2CCCC2)N(C(=O)/C=C/C(=O)Nc2cc(C)on2)c2ccccc2C)cc1 (centres undefined)	inconclusive: 55.1%
Cc1ccc(-c2cc(Cc3ccc(N(C)C)cc3)c(=O)[nH]n2)cc1	inconclusive: 43.3%
Fc1ccc2cnc(-c3ccccc3)c(-c3ccc(C(F)(F)F)cc3)c2c1	inconclusive: 30.3%
C(=N\Nc1nc2ccccc2[nH]1)/c1ccccc1	inactive: 23.8%
CCC/C(=N\NC(=O)C1CCCC1)c1ccccc1	inconclusive: 36.9%
CC(C)(C)N=Cc1cc(-c2ccccc2)sc1O	inconclusive: 62%
C=CCN([C@@H](CC(C)C)C(=O)OC)S(=O)(=O)N(CC=C)[C@@H](CC(C)C)C(=O)OC	inconclusive: 65.6%
O=C(N/N=C/c1ccc(Br)o1)c1cc([N+](=O)[O-])cc([N+](=O)[O-])c1	inactive: -0.53%
COc1cccc(C(=O)Nc2ccncc2)c1OC	inactive: 1.97%
CCc1nnc(NC(=O)CSc2ccc(-c3ccc(C)cc3)nn2)s1	inconclusive: 37.8%
N=c1c(C(=O)NCc2ccccc2)cc2c(=O)n3ccccc3nc2n1Cc1ccco1	inconclusive: 57.2%
Cc1cc(C(=O)N2CCN(C(c3ccccc3)c3ccccc3)CC2)on1	inconclusive: 35.8%
O=C1CCCCCC1C1(O)C(=O)Nc2ccccc21 (centres undefined)	inactive: 1.18%
O=C(NCCn1cc(SCc2ccccc2)c2ccccc21)c1ccccc1F	inconclusive: 48.9%
CSc1ccc(CCNC(=O)c2ccc(CS(=O)Cc3ccc(Cl)cc3)o2)cc1 (centres undefined)	inconclusive: 48.6%
Cc1nc(Cl)sc1C(=O)Nc1ccc(C(F)(F)F)cc1	inconclusive: 57.6%

Compounds above with a furan ring, fused or not:
Structure (SMILES)	activation
Cc1oc(-c2nc3ccccc3n2C)cc1C(=O)c1ccccc1	inconclusive: 32.7%
S=C(NCCC1=CCCCC1)NCc1ccco1	inconclusive: 55.2%
O=C(N/N=C/c1ccc(Br)o1)c1cc([N+](=O)[O-])cc([N+](=O)[O-])c1	inactive: -0.53%
N=c1c(C(=O)NCc2ccccc2)cc2c(=O)n3ccccc3nc2n1Cc1ccco1	inconclusive: 57.2%
CSc1ccc(CCNC(=O)c2ccc(CS(=O)Cc3ccc(Cl)cc3)o2)cc1 (centres undefined)	inconclusive: 48.6%

(more compounds)

Structure (SMILES)	activation
CCOCc1nnc(NC(=O)c2cc(Cl)ccc2OC)s1	inconclusive: 38.9%
O=C(O)c1cccc(NC(=S)NC(=O)c2ccncc2)c1	inactive: 0.0795%
O=C(Nc1ccc2c3c(cccc13)CC2)c1cccc([N+](=O)[O-])c1	inconclusive: 62.5%
O=C(OC1Cn2c(=O)ccc(=O)n2C1)c1ccccc1	inactive: 5.34%
CC(=O)Nc1ccc2c(c1)n(C)c(=O)n2C	inactive: 1.65%
COc1ccc(CC(=O)NNc2ncnc3c2cnn3-c2ccc(C)cc2)cc1	inactive: 2.47%
CC(=O)NC(CC(=O)Nc1ccc(S(=O)(=O)Nc2nccs2)cc1)c1ccccc1 (centres undefined)	inactive: -1.09%
Cc1ccc2c(c1)CCCN2C(=O)c1cc2ccccc2oc1=O	inconclusive: 33.2%
Cc1ccc(NC(=O)C(C)c2cccc(C(=O)c3ccccc3)c2)cc1O (centres undefined)	inconclusive: 70%
COc1ccc(C(=O)CSc2ccc(-c3ccccc3)nn2)cc1	inconclusive: 49.9%
N#CCSc1nc2ccccc2c(=O)n1CC1CCCC1	inconclusive: 55.4%
CCOc1ccc(NC(=O)CC2C(=O)N(CC)C(=S)N2CCN2CCOCC2)cc1 (centres undefined)	inactive: 5.98%
COc1ccccc1S(=O)(=O)NCc1ccc(C(=O)NC(C)c2ccccn2)cc1 (centres undefined)	inactive: -0.561%
O=C(NCCS(=O)(=O)c1ccc(Cl)cc1)c1ccc(F)cc1	inconclusive: 38.8%
FC(F)(F)c1ccccc1NC(=S)Nc1ccccc1	inactive: -7.11%
Cc1ccc(-c2nc(Nc3ccc(O)cc3)c3ccccc3n2)cc1	inconclusive: 39%
CCCOC1CCCN(C(=O)c2cc(COc3ccc(F)c(F)c3)on2)C1 (centres undefined)	inconclusive: 38.9%
COc1cc2[nH]c(C(=O)N3CCc4ccccc4C3)cc2c(OC)c1OC	inconclusive: 31.2%
O=C(NC1CCCN(c2ccc(C(F)(F)F)cn2)C1)c1cc(Cl)ccc1F (centres undefined)	inconclusive: 35.6%
COc1cccc(-c2nc(CS(=O)(=O)CC(=O)NCCc3ccc(C)cc3)c(C)o2)c1	inconclusive: 44.4%

Molecules from the list above that have a tert-butyl group, in the order listed:
Structure (SMILES)	activation
CC(C)(C)c1ccc(C2C3=C(CCCC3=O)NC3=C2C(=O)c2ccccc23)cc1 (centres undefined)	inconclusive: 42.3%
CC(C)(C)N=Cc1cc(-c2ccccc2)sc1O	inconclusive: 62%
